PubChem BioAssay AID602196 | INSERM – 2012
The whole screen tested about 23,000 reagents; shown is a random part of them. 455 of all reagents (2%) were called active. 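Active includes both protection and sensitisation; some change values fall well beyond the stated -50 to +50 range.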 Unmarked entries are inactive. Not all columns of the deposit are shown. No sequences are given here. Not stated in the record: the amount of reagent.

Assay: 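Knock-downs that protect lung cancer cells from cisplatin or sensitise them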
Cells: human A549 lung cancer cells
Reagents: siRNA pair against human genes
Duration: 48 h transfection before cisplatin; time from cisplatin to read-out not stated
Conditions: cisplatin at a dose killing half of control-siRNA cells; exact dose and duration not given
Measurement: 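Shift in cisplatin death relative to control siRNA, from -50 (all cells die) to +50 (no cells die); siRNAs harmful on their own scored 0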
Reading the numbers: two-siRNA summed score (-2 to +2): higher = both siRNAs protect from cisplatin killing; -2 means both sensitise
Rule for the call: 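Each siRNA scores 0 if harmful alone by LDH or WST-1, otherwise +1 if it reduces and -1 if it increases cisplatin killing; a gene is active when both siRNAs agree (sum +2 or -2)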
Meaning of the calls: active = both siRNAs shift cisplatin killing the same way; inactive = no consistent shift, or siRNA harmful alone

With knock-down of NDUFB2, the screen gave two-siRNA summed score (-2 to +2) = 0.
For OR4M2, the entry reads two-siRNA summed score (-2 to +2) = 0.
After knock-down of LOC153918, the record shows two-siRNA summed score (-2 to +2) = 0.
PTPRO gave two-siRNA summed score (-2 to +2) = 0.
After knock-down of LOC441597, the record shows two-siRNA summed score (-2 to +2) = 0.
After knock-down of DSCR8, the screen gave two-siRNA summed score (-2 to +2) = 0.
For SPECC1 the deposit lists two-siRNA summed score (-2 to +2) = 0.
Knock-down of RNF182 resulted in: two-siRNA summed score (-2 to +2) = 0.
Knock-down of LOC441192 resulted in: two-siRNA summed score (-2 to +2) = 0.
With knock-down of TRAIP, the record shows two-siRNA summed score (-2 to +2) = 0.
With knock-down of SNCB, the record shows two-siRNA summed score (-2 to +2) = 0.
After knock-down of ATCAY the results were two-siRNA summed score (-2 to +2) = 0.
DEFB108B showed two-siRNA summed score (-2 to +2) = 0.
For LOC387701 the deposit lists two-siRNA summed score (-2 to +2) = 1.
Depletion of LOC285588 gave: two-siRNA summed score (-2 to +2) = 2 (active).
With knock-down of LOC401456, the screen gave two-siRNA summed score (-2 to +2) = 0.
Silencing of ZNF608 resulted in: two-siRNA summed score (-2 to +2) = 0.
PCDH8 showed two-siRNA summed score (-2 to +2) = 0.
SLC5A2 gave two-siRNA summed score (-2 to +2) = 1.
Against PGR the deposit lists two-siRNA summed score (-2 to +2) = 0.
After knock-down of MYCT1, the record shows two-siRNA summed score (-2 to +2) = 0.
Knock-down of LOC340168 came out at: two-siRNA summed score (-2 to +2) = 1.
Silencing of PPP1R8 gave: two-siRNA summed score (-2 to +2) = 0.
Knock-down of RCBTB2 came out at: two-siRNA summed score (-2 to +2) = 0.
Silencing of TMEM123 came out at: two-siRNA summed score (-2 to +2) = 0.
Depletion of ZNF596 resulted in: two-siRNA summed score (-2 to +2) = 1.
For NDUFC2, the values are two-siRNA summed score (-2 to +2) = -1.
For DECR2, the values are two-siRNA summed score (-2 to +2) = 0.
Silencing of ZFYVE1 gave: two-siRNA summed score (-2 to +2) = 0.
CHST15 scored two-siRNA summed score (-2 to +2) = 0.
Depletion of FKBP4P2 gave: two-siRNA summed score (-2 to +2) = -2 (active).

Entries listed above marked active, once more:
LOC285588 | two-siRNA summed score (-2 to +2): 2 (active)
FKBP4P2 | two-siRNA summed score (-2 to +2): -2 (active)
